PubChem BioAssay AID504764 – Drosophila RNAi Screening Center | 2011
Test: 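Genome-wide screen for regulators of Notch-driven gene expression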 (primary screen). Cells: Drosophila Kc167 cells. Knock-down reagent: long dsRNA against Drosophila genes. Timing: about 5 days (4 days dsRNA, then 24 h after transfection). Conditions: transfection of constitutively active membrane-tethered Notch lacking the extracellular domain, read 24 h later. Detection: 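Light from a Notch-responsive E(spl)m3 luciferase reporter under active Notch, with control-promoter and no-Notch reporter wells to normalise; raw counts from paired wells a and b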. Direction: induced reporter light, run 1, well a and induced reporter light, run 1, well b: higher = more light from the Notch target reporter with active Notch; control promoter light, run 1, well a and control promoter light, run 1, well b: higher = more light from the viral control promoter (cell number, transfection, viability); uninduced reporter light, run 1, well a: higher = more light from the Notch target reporter without active Notch. Rule for the call: 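Wells with low control signal or poorly matching duplicates excluded; duplicates averaged; per source plate, z beyond ±2 for induced/control log2 ratio or beyond ±1.8 for induced/uninduced marks a hit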. Calls: active = modifier hit (raised or lowered Notch signal); inactive = not a hit.
In all, the deposit lists about 22,000 reagents; shown is a random part of those with a known target gene and a result. In the full data, 403 (1.9%) were called active. 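Unnormalised raw counts per well; ratio z-scores behind the hit calls and whether each hit raises or lowers signal are not deposited.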 Reagents against one gene are numbered here. Names joined by + are all predicted targets of the reagent. The record does not give: the amount of reagent.

The first 4 records, ahead of the listing:
| target gene | reagent no. | induced reporter light, run 1, well a | induced reporter light, run 1, well b | control promoter light, run 1, well a | control promoter light, run 1, well b | uninduced reporter light, run 1, well a | Call |
| --- | --- | --- | --- | --- | --- | --- | --- |
| GstD1 | 1 | 88485 | 79290 | 78235 | 59025 | 5170 | inactive |
| egr | 1 | 1.74e5 | 1.90e5 | 2.23e5 | 1.82e5 | 16850 | inactive |
| l(3)psg2 | 1 | 76675 | 1.01e5 | 96655 | 48655 | 12720 | inactive |
| foxo | 1 | 1895 | 1555 | 1635 | 1655 | 1725 | inactive |

The list itself, repeating the preview:
| target gene | reagent no. | induced reporter light, run 1, well a | induced reporter light, run 1, well b | control promoter light, run 1, well a | control promoter light, run 1, well b | uninduced reporter light, run 1, well a | Call |
| --- | --- | --- | --- | --- | --- | --- | --- |
| GstD1 | 1 | 88485 | 79290 | 78235 | 59025 | 5170 | inactive |
| egr | 1 | 1.74e5 | 1.90e5 | 2.23e5 | 1.82e5 | 16850 | inactive |
| l(3)psg2 | 1 | 76675 | 1.01e5 | 96655 | 48655 | 12720 | inactive |
| foxo | 1 | 1895 | 1555 | 1635 | 1655 | 1725 | inactive |
| foxo | 2 | 1.72e5 | 1.71e5 | 74720 | 72285 | 14240 | inactive |
| Adi1 | 1 | 2.06e5 | 1.59e5 | 2.52e5 | 2.47e5 | 12150 | inactive |
| Adi1 | 2 | – | – | – | – | – | inactive |
| mib2 | 1 | 1.99e5 | 1.95e5 | 2.36e5 | 2.22e5 | 13520 | inactive |
| CG34242 | 1 | 2.21e5 | 2.24e5 | 1.85e5 | 2.17e5 | 13890 | inactive |
| AstC-R1 | 1 | 2.33e5 | 2.08e5 | 2.87e5 | 2.48e5 | 11232 | inactive |
| CG33627 | 1 | 2.30e5 | 2.49e5 | 3.11e5 | 3.82e5 | 20745 | inactive |
| MAGE | 1 | 86520 | 1.07e5 | 1.09e5 | 1.12e5 | 11200 | inactive |
| CG34444 | 1 | 93760 | 83915 | 1.06e5 | 1.15e5 | 9355 | inactive |
| CG7755 | 1 | 1.84e5 | 1.24e5 | 1.56e5 | 2.21e5 | 13705 | inactive |
| CG8531 | 1 | 1.59e5 | 1.42e5 | 1.91e5 | 1.88e5 | 11855 | inactive |
| CG34282 | 1 | 2.14e5 | 1.77e5 | 1.74e5 | 1.78e5 | 15700 | inactive |
| Trax | 1 | 1.56e5 | 1.42e5 | 1.14e5 | 1.16e5 | 10130 | inactive |
| CG30159 | 1 | 2.25e5 | 2.05e5 | 2.18e5 | 2.09e5 | 14242 | inactive |
| CG6481 | 1 | 1.12e5 | 1.21e5 | 1.04e5 | 88885 | 13050 | inactive |
| CG12010 | 1 | 1.14e5 | 1.35e5 | 1.83e5 | 1.91e5 | 5250 | inactive |
| Tmtc2 | 1 | 96140 | 1.08e5 | 78895 | 81465 | 14515 | inactive |
| ppk6 | 1 | 45530 | 40670 | 42065 | 48830 | 3805 | inactive |
| CG9631 | 1 | 1.40e5 | 98645 | 1.12e5 | 1.08e5 | 8910 | inactive |
| CG17760 | 1 | 1.20e5 | 1.35e5 | 1.68e5 | 1.66e5 | 12670 | inactive |
| CG5515 | 1 | 1.69e5 | 1.80e5 | 2.24e5 | 2.01e5 | 12200 | inactive |
| st | 1 | 1.30e5 | 1.47e5 | 96420 | 1.32e5 | 9660 | inactive |
| CG5641 | 1 | 1.16e5 | 1.20e5 | 1.01e5 | 71620 | 8275 | inactive |
| CG6333 | 1 | 1.96e5 | 1.76e5 | 3.00e5 | 1.97e5 | 6742 | inactive |
| CG1317 | 1 | 1.01e5 | 82195 | 1.75e5 | 1.60e5 | 6730 | inactive |
| Ank | 1 | 1.46e5 | 1.42e5 | 2.20e5 | 2.38e5 | 10800 | inactive |
| CG33229 | 1 | 2.11e5 | 2.17e5 | 2.36e5 | 2.20e5 | 13760 | inactive |
| CG6553 | 1 | 1.11e5 | 1.32e5 | 1.88e5 | 1.83e5 | 9440 | inactive |
| cn | 1 | 1.46e5 | 1.74e5 | 1.91e5 | 1.56e5 | 13332 | inactive |
| Nepl16 | 1 | 1.68e5 | 1.37e5 | 2.06e5 | 2.01e5 | 13770 | inactive |
| mGluR | 1 | 1.18e5 | 1.33e5 | 1.79e5 | 2.12e5 | 10735 | inactive |
| Dbp73D | 1 | 1.51e5 | 1.44e5 | 1.12e5 | 1.52e5 | 12565 | inactive |
| CG4960 | 1 | 1.77e5 | 1.90e5 | 2.29e5 | 2.21e5 | 12540 | inactive |
| CG15529 | 1 | 1.34e5 | 1.25e5 | 1.96e5 | 1.87e5 | 12120 | inactive |
| CG4953 | 1 | 2.41e5 | 2.50e5 | 2.17e5 | 1.83e5 | 17980 | inactive |
| Cpr47Eg | 1 | 88800 | 99945 | 1.33e5 | 1.24e5 | 9955 | inactive |
| Rcd4 | 1 | 1.87e5 | 1.91e5 | 1.12e5 | 1.39e5 | 22855 | inactive |
| RpL24 | 1 | 15765 | 17935 | 19085 | 17738 | 1675 | inactive |
| Stacl + CG8179 (retired record) | 1 | 87455 | 1.03e5 | 1.44e5 | 1.63e5 | 9970 | inactive |
| Cln3 | 1 | 1.73e5 | 1.24e5 | 1.87e5 | 1.58e5 | 7640 | inactive |
| CG16812 | 1 | 2.50e5 | 2.87e5 | 2.10e5 | 2.16e5 | 22890 | inactive |
| CG8142 | 1 | 1.07e5 | 97045 | 88045 | 57880 | 7660 | inactive |
| Nmdar1 | 1 | 1.61e5 | 1.44e5 | 1.63e5 | 1.52e5 | 12055 | inactive |
| Nmdar1 | 2 | 87235 | 1.18e5 | 98030 | 77190 | 5420 | inactive |
| CG13712 | 1 | 1.12e5 | 93650 | 1.39e5 | 1.10e5 | 5582 | inactive |
| Vm34Ca | 1 | 1.54e5 | 1.49e5 | 1.45e5 | 1.68e5 | 12442 | inactive |
| Lgr3 | 1 | 1.58e5 | 1.47e5 | 1.71e5 | 1.85e5 | 15230 | inactive |
| Lgr3 | 2 | 1.40e5 | 1.95e5 | 2.11e5 | 2.00e5 | 13570 | inactive |
| Ser7 | 1 | 2.02e5 | 1.83e5 | 2.10e5 | 2.07e5 | 12945 | inactive |
| CG32163 | 1 | 1.53e5 | 1.46e5 | 1.94e5 | 2.41e5 | 14885 | inactive |
| CG15760 | 1 | 34730 | 40205 | 42510 | 34085 | 2532 | inactive |
| CG13071 | 1 | 1.57e5 | 1.40e5 | 1.91e5 | 2.21e5 | 8945 | inactive |
| ball | 1 | 38720 | 45345 | 1.18e5 | 95495 | 2505 | active |
| CG10598 | 1 | 1.02e5 | 1.17e5 | 1.27e5 | 91805 | 13915 | inactive |
| CG5388 | 1 | 1.58e5 | 1.33e5 | 1.64e5 | 1.60e5 | 11660 | inactive |
| CG13506 | 1 | 1.69e5 | 1.57e5 | 1.60e5 | 1.52e5 | 13175 | inactive |
| Vha36-1 | 1 | 1.28e5 | 1.34e5 | 2.19e5 | 2.65e5 | 10130 | inactive |
| GstD6 | 1 | 90840 | 93685 | 85145 | 62175 | 5690 | inactive |
| Hsepi | 1 | 2.07e5 | 1.73e5 | 1.69e5 | 1.78e5 | 13650 | inactive |
| CG33303 | 1 | 1.45e5 | 1.65e5 | 71250 | 1.00e5 | 19465 | inactive |
